We go through 42 sequences from article PMC7819943, “Rice protein-binding microarrays: a tool to detect cis-acting elements near promoter regions in rice”.

Some of the results follow.

This assay addresses T1, OsSMF1 (Oryza sativa, UniProt Q6ZLB0 1-436).
T1 sequence: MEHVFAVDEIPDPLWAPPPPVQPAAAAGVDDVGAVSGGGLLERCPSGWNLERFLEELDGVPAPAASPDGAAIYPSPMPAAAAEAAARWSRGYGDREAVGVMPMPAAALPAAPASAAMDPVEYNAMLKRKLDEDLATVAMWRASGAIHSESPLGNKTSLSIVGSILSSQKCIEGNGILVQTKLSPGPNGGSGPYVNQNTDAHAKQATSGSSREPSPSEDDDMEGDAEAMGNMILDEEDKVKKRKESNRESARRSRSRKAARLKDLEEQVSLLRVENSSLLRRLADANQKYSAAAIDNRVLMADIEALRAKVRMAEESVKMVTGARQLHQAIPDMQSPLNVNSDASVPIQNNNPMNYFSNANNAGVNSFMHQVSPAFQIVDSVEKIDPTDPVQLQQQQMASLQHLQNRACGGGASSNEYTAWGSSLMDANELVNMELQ
As to the kind of experiment: protein-binding microarray (RPBM); PBS, 2% BSA, 51.3 ng/ul salmon testes DNA, 50 uM zinc acetate, 200 nM TF, 25 C, 1 h; high values mean tight binding. Conditions: protein: recombinant; tags: N-terminal polyhistidine and DsRed monomer fusion (pET32a); chain copies: 2; label: CyDye5-dUTP incorporated in the synthesized complementary strand; 3' TTTTT single-stranded linker to array surface; dsDNA, one strand shown. The method in brief:
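Transcription factors, each fused N-terminally to a polyhistidine tag and DsRed, were expressed in E. coli BL21-CodonPlus and purified on Ni–NTA. A custom Agilent array was made double-stranded by primer extension with Cy5-dUTP and blocked with 2% BSA. It was incubated with 200 nM protein in PBS, 2% BSA, salmon testes DNA and 50 µM zinc acetate at 25 °C for 1 h, then washed. The binding signal is per-feature fluorescence intensity (arbitrary units) read on an Axon 4000B scanner.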
Turning to “CGGAGACCACCAACCGATGATGTCGTCTCCTTTGCCAACACGGAGTCACCTAGTGCAG”, the binding signal was 3220 fluorescence intensity (a.u.).

“CCAACCTCAAAACCCTAACCCGGTGGACCACCGCTATTACCGGAGTCACCTAGTGCAG”: the binding signal is 4080 fluorescence intensity (a.u.). Regarding “ATAATAATAATAAACCAGCTGCCTTTGTGACAACAGCCCACGGAGTCACCTAGTGCAG”, the binding signal was 18800 fluorescence intensity (a.u.). Take “GCGCAGTTCGTGAAGAGCGTGGCGTGCGGTGCGCGCGTCACGGAGTCACCTAGTGCAG”: the binding signal is 4810 fluorescence intensity (a.u.). Under “AGGTTCAACTGTTTAAGTTACGGAACACGTCATCTTTGTCCGGAGTCACCTAGTGCAG” stands 20700 fluorescence intensity (a.u.); under “TGAAAATGAAAATATCAAAGTGACGTCAGCGCAATCGCGCCGGAGTCACCTAGTGCAG”, 10400 fluorescence intensity (a.u.); under “CGTCGCCGTCAGCCGCCCGCCGCACTCGTTTCCAGCGATCCGGAGTCACCTAGTGCAG”, 3460 fluorescence intensity (a.u.). Consider “ACTGCTCCATTAGCCAGCAGCCGGTGGCGCACAAACGCCACGGAGTCACCTAGTGCAG”, for which the binding signal is 3300 fluorescence intensity (a.u.).

Turning to “ATTAAGAAGCATCATATCCATATCACTATATCGCCACTGACGGAGTCACCTAGTGCAG”, the binding signal is 4220 fluorescence intensity (a.u.). Take “AGCTTCAGGAGTTCTTGTCACGTCTCGAGGAAGAGAGGCTCGGAGTCACCTAGTGCAG”: the binding signal is 3740 fluorescence intensity (a.u.). Under “GAGCGAGTCGACCTGAGGCTTCGTCAGGCAGTGTGTTGCTCGGAGTCACCTAGTGCAG” stands 3160 fluorescence intensity (a.u.). As to “AGTGTGTAAGACTGACGTGATAACCACTACACCACAGCAACGGAGTCACCTAGTGCAG”, the binding signal was 3440 fluorescence intensity (a.u.). With “GCACTTGCATATTTGCTGTGTGGCTTGTTGAGTATGTCATCGGAGTCACCTAGTGCAG”, the binding signal is 3760 fluorescence intensity (a.u.).

Consider “TCCAGTTTCGCGTAGCTGCGTGACAGTTCAATTGAACTCTCGGAGTCACCTAGTGCAG”, for which the binding signal was 3200 fluorescence intensity (a.u.).

As for “AAGTGGACCGACGCCGACGTCGACGAGTTCATCGCCTCCGCGGAGTCACCTAGTGCAG”, the binding signal is 3720 fluorescence intensity (a.u.). Under “TATGATGTTTGTAAGACGTGGATCTGAATGTCAACATTGTCGGAGTCACCTAGTGCAG” stands 3220 fluorescence intensity (a.u.).

With “ATGTGCACGTCAACCAGTAAGACACACTCTTTAGAATTGGCGGAGTCACCTAGTGCAG”, the binding signal was 4200 fluorescence intensity (a.u.). On to “AGCAAACATAATTAACATATATATAATAAAGCTCAAAGAGCGGAGTCACCTAGTGCAG”, for which the binding signal was 3780 fluorescence intensity (a.u.). Regarding “CCGCGGTGACACAGCATTTAGCGTCAGTTGACGTGGTGCGCGGAGTCACCTAGTGCAG”, the binding signal is 8650 fluorescence intensity (a.u.). Consider “GTTAAACACGTACTAAGTGTCAAACATTTTGAAATGGAGGCGGAGTCACCTAGTGCAG”, for which the binding signal was 21300 fluorescence intensity (a.u.).

In the case of “CGTCCATTGCCTGCAGAAACGGACGGCGCGGGTGGGTGGGCGGAGTCACCTAGTGCAG”, the binding signal is 3680 fluorescence intensity (a.u.). On to “CCACCGTCGACGCCACCTCCGCCGGCCCCGCCACGCGGCGCGGAGTCACCTAGTGCAG”, for which the binding signal is 6760 fluorescence intensity (a.u.). On to “ACTCTGAACCATGTGATGATGTAACGTGGCGACGATCGAGCGGAGTCACCTAGTGCAG”, for which the binding signal was 3210 fluorescence intensity (a.u.). Turning to “TCCGCACTCACAAGCTGTACGATCCGTTCCGTTCGTCCTTCGGAGTCACCTAGTGCAG”, the binding signal was 3450 fluorescence intensity (a.u.). With “GTGTGTGCGTTTGTGTGTGTATATAGTAGTTAGGCCAATTCGGAGTCACCTAGTGCAG”, the binding signal was 3980 fluorescence intensity (a.u.).

Turning to “TCTTCCTGATCTCACCACTTTGTGACTCGTCACCGTCTCGCGGAGTCACCTAGTGCAG”, the binding signal is 5150 fluorescence intensity (a.u.). As to “GAGGAAATTATTATACTTATCATCTCATATAATTTAGACCCGGAGTCACCTAGTGCAG”, the binding signal is 22100 fluorescence intensity (a.u.). For the sequence “CACTCGCTCATCATGTTTGCGTCGGAGCCGACGTGGCGACCGGAGTCACCTAGTGCAG”, the binding signal was 17200 fluorescence intensity (a.u.). Regarding “GTACTCGTACTCCTAAATTTGTGTTGGTTTGTTGGACTATCGGAGTCACCTAGTGCAG”, the binding signal was 27900 fluorescence intensity (a.u.). As to “GCTATCTTTTCTCTTGGTCATCATGCTTCCTCCATGGATTCGGAGTCACCTAGTGCAG”, the binding signal was 3450 fluorescence intensity (a.u.).

Regarding “TAATTTGACACTACCAATGATTTGGTAGGGCACCAAACCACGGAGTCACCTAGTGCAG”, the binding signal was 3410 fluorescence intensity (a.u.). With “GTGAGACTGGCGAGGCCCTTCTTGCGTGGCGCTGCAAGCTCGGAGTCACCTAGTGCAG”, the binding signal was 7600 fluorescence intensity (a.u.). Under “TGGTTCTATTTGCTTGTCAACCTTTATGATCTTGCGTTATCGGAGTCACCTAGTGCAG” stands 3380 fluorescence intensity (a.u.); under “TAGCGCATCATCATCATCGGTGTGTCGTGACTTGCGTTCGCGGAGTCACCTAGTGCAG”, 5120 fluorescence intensity (a.u.). Regarding “GCTACTTTGCGCTCGCGTCGGCGTCGGCTTCTGTCTCCGACGGAGTCACCTAGTGCAG”, the binding signal is 4070 fluorescence intensity (a.u.). In the case of “AGCGGAAGTCATTGACGATGTCGGTGGTCATGCTATGTCCCGGAGTCACCTAGTGCAG”, the binding signal was 17600 fluorescence intensity (a.u.).

For the sequence “TATCAAATTTATCCATTTGTTAATGTTGTAATAATTAAAACGGAGTCACCTAGTGCAG”, the binding signal is 35100 fluorescence intensity (a.u.).

Regarding “GTTTATTCCAAGTGGTGGATGCTGATGAATTAAGTATATACGGAGTCACCTAGTGCAG”, the binding signal is 3140 fluorescence intensity (a.u.). As to “ACCAGCGCCCGCGCGCGCGCGCGAGTACGTGTTGTCGAGACGGAGTCACCTAGTGCAG”, the binding signal was 3200 fluorescence intensity (a.u.). Under “CAGCTGCGGGCAACGGTGCCTTGGCGTCACGCATCCGCCGCGGAGTCACCTAGTGCAG” stands 3610 fluorescence intensity (a.u.); under “GGGGAAATTTTCACGAGGGAGAGGGAGGGGAGGGATATTTCGGAGTCACCTAGTGCAG”, 4860 fluorescence intensity (a.u.); under “GCGCCAAGCCGGCCTCCATCTCCGCCGCCCGCGCCTCTCGCGGAGTCACCTAGTGCAG”, 3370 fluorescence intensity (a.u.).
